Assay [1] deals with PTEN (endogenous) (mouse (endogenous in BAT and brown adipocytes)) (UniProt O08586). The experiment in a line: co-IP; endogenous co-IP of Mib2 and PTEN in wild-type or DJ-1 KO brown adipocytes.
Assay [2] has as its target T1, DJ-1 (endogenous, brown adipose tissue) (mouse (endogenous in BAT)) (UniProt Q99LX0).
T1 sequence: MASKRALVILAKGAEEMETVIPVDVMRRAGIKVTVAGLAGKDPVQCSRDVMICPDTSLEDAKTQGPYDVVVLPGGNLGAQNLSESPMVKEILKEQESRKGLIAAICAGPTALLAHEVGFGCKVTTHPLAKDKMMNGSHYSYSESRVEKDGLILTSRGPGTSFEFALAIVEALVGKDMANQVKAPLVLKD
The experiment in a line: co-IP; lysates of BAT immunoprecipitated with DJ-1 antibody, immunoblotted with PTEN or Mib2 antibody; IP buffer 50 mM Hepes pH 7.9, 150 mM NaCl, 1% Triton-100, 4 °C. A general note: In western blotting, separated proteins are transferred to a membrane and probed.

Amino acid sequences for entries named in this document (tags omitted).
UniProt O08586: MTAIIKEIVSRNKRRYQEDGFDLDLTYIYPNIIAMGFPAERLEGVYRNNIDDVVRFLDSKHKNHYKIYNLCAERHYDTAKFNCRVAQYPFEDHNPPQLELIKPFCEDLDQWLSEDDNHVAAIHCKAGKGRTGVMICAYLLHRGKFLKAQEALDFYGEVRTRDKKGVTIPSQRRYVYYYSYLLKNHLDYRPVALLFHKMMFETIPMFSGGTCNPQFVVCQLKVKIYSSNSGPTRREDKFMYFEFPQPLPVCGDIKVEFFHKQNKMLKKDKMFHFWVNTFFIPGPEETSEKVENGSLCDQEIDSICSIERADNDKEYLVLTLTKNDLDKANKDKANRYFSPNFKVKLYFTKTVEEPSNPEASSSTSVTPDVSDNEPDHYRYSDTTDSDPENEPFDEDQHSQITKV

No constants are given. Whether binding was seen depends on the method and setting. In cells and extracts the contact can be indirect. Some results given as binding are weak or reduced against the parent protein; the word gives no strength.

B1: mind bomb-2 (Mib2) (endogenous) (protein, UniProt Q8R516 1-973)
chain: MDLDPHAGVQVGMRVVRGMDWKWGQQDGGEGGVGTVVELGRHGSPSTPDRTVVVQWDQGTRTNYRAGYQGAHDLLLYDNAQIGIRHPNIICDCCKKHGLRGMRWKCRVCFDYDLCTQCYMHNKHDLTHAFERYETSHSRPVTLSPRQGLPRIPLRGIFQGAKVVRGPDWEWGSQDGGEGKTGRVVDIRGWDVETGRSVASVTWADGTTNVYRVGHKGKVDLRCVGEAAGGFYYKEHLPKLGKPAELQRRVSADGQPFQRGDKVKCLLDTDVLRDMQEGHGGWNPRMAEFIGQMGTVHRITDRGDVRVQFNHETRWTFHPGALTKHNSFWVGDVVRVIGDLDTVKRLQAGHGEWTDDMAPALGRVGKVVKVFGDGNLRVAVGGQRWTFSPSCLVAYRPEEDANLDVAERARENKSAASVSVAGSLSVALDKLRTQKSDPEHPGRLVVEAALGNVARALDLLRRHPEQASYHPALVVDTKNQGRTALQVAAYLGQVELVRLLLQARASMDLPDDEGNTVLHYTAMGNQPEATRVLLSAGCAVDARNGTRSTALHVAVQRGFLEVVKILCERGCDVNLPDAHADTPLHSAISAGAGASSIVEVLTEVPGIDVTATNSQGFTLLHHASLKGHVLAVRKILARARQLVDAKKEDGFTALHLAALNNHREVAQVLIREGRCDVNVRNRKLQSPLHLAVQQAHLGLVPLLVDAGCSVNTEDEEGDTALHVALQRHQLLPLVADRAGGDPGPLQLLSRLQASGLPGCTELTVGAAVACFLALEGADVSYANHRGRSPLDLATEGRVLKALQGCAQRFRERQAGGGGGVPPGPRHVLSTPNTVTNLHVSGTAGPEAAECLVCSELALLILFSPCQHRTVCEECARRMKKCIRCQVVISKKLRPDGSEVVNAIQVPGPPRQLVEELQSRYRQMEERITCPICIDSHIRLVFQCGHGACAPCGAALNACPICRQPIRDRIQIFV
Take B1: the binding entry in assay [1] and in assay [2] was “binds” in each case.

The record behind these values is publication PMC5309696.
